Like-named read-outs stand apart in the source and are kept apart here.

Assay in all cases: cells
The test system of assay [1] is HUEVEC. The note with it: 48 h, read-out: IC-50, MTT Assay.
The subject of a further assay is HT1080. The note with it: Homo sapiens, HT-1080, 48 h, read-out: IC-50, RT-CES.
For assay [2], the system named is HUEVEC. Conditions: 48 h, read-out: IC-50, RT-CES.
Another assay has as its system NIH3T3. Conditions: Mus musculus, NIH3T3, 48 h, read-out: IC-50, RT-CES.

Take `CC/C(=C(\c1ccccc1)c1ccc(OCCN(C)C)cc1)c1ccccc1` [Tamoxifen]: the IC50 in the assay on HUEVEC [1] is 8 µM; in the assay with HT1080, 2.4 µM; in the assay on HUEVEC [2] it was 7.5 µM; in the assay with NIH3T3, 16 µM.
